One assay deals with T1, Myc-Plk4 (UniProt O00444).
T1 sequence: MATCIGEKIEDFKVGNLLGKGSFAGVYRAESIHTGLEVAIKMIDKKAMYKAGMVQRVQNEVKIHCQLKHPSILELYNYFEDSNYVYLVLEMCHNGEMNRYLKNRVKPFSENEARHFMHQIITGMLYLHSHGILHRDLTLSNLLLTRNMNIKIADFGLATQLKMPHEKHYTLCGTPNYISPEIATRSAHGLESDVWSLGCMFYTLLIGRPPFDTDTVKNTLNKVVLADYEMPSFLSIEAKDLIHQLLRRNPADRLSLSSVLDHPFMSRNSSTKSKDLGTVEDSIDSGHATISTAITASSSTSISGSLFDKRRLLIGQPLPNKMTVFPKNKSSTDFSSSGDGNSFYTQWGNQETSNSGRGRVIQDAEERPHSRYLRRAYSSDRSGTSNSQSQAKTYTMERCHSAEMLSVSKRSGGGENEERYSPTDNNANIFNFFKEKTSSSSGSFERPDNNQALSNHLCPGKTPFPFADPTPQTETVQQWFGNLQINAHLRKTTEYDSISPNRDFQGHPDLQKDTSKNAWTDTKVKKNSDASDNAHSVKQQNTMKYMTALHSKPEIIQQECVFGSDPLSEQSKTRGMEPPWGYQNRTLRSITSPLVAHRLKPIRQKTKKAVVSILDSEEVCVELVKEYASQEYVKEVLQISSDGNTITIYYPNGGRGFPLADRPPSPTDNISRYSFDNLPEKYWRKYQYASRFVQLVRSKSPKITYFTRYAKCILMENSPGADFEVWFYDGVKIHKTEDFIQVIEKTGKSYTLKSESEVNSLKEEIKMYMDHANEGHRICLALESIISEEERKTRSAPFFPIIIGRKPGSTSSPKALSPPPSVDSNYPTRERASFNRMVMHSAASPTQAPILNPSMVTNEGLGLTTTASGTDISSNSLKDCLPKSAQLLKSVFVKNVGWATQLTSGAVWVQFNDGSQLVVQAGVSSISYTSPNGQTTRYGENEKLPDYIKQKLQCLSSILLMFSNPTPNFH
Put plainly: co-IP; HEK293T cells co-expressing GFP-STIL with Myc-Plk4 and/or Cep131 (WT or 2A); GFP-magnetic beads; immunoblotting (Fig. 5a, b).

The next assay has as its target T2, GST-Plk4-KD (K41R) (UniProt O00444).
T2 sequence: T1 sequence with K41R
In words: pull-down; bacterially generated GST-Plk4-WT or KD incubated with His-Cep131 (1-911 aa) and pulled down using GSH-agarose (Fig. 3c).

For another assay, the target named is T3, GST-Plk4-WT (UniProt O00444).
T3 sequence: T1 sequence
Described as above.

Numbering of substitutions follows the chain as printed. These are yes or no findings as the source states them, for the method shown. Binding seen in cells or lysates may run through a third protein. Some binding calls cover weakened binding; strength is not graded here. Tags and fused reporters may be left off the sequences shown.

For two molecules, binding results are on record in PMC6662699.

B1: HA-Cep131-WT (protein, UniProt Q9UPN4 1-1083)
chain: MKGTRAIGSVPERSPAGVDLSLTGLPPPVSRRPGSAATTKPIVRSVSVVTGSEQKRKVLEATGPGGSQAINNLRRSNSTTQVSQPRSGSPRPTEPTDFLMLFEGSPSGKKRPASLSTAPSEKGATWNVLDDQPRGFTLPSNARSSSALDSPAGPRRKECTVALAPNFTANNRSNKGAVGNCVTTMVHNRYTPSERAPPLKSSNQTAPSLNNIIKAATCEGSESSGFGKLPKNVSSATHSARNNTGGSTGLPRRKEVTEEEAERFIHQVNQATVTIQRWYRHQVQRRGAGAARLEHLLQAKREEQRQRSGEGTLLDLHQQKEAARRKAREEKARQARRAAIQELQQKRALRAQKASTAERGPPENPRETRVPGMRQPAQELSPTPGGTAHQALKANNTGGGLPAAGPGDRCLPTSDSSPEPQQPPEDRTQDVLAQDAAGDNLEMMAPSRGSAKSRGPLEELLHTLQLLEKEPDVLPRPRTHHRGRYAWASEVTTEDDASSLTADNLEKFGKLSAFPEPPEDGTLLSEAKLQSIMSFLDEMEKSGQDQLDSQQEGWVPEAGPGPLELGSEVSTSVMRLKLEVEEKKQAMLLLQRALAQQRDLTARRVKETEKALSRQLQRQREHYEATIQRHLAFIDQLIEDKKVLSEKCEAVVAELKQEDQRCTERVAQAQAQHELEIKKLKELMSATEKARREKWISEKTKKIKEVTVRGLEPEIQKLIARHKQEVRRLKSLHEAELLQSDERASQRCLRQAEELREQLEREKEALGQQERERARQRFQQHLEQEQWALQQQRQRLYSEVAEERERLGQQAARQRAELEELRQQLEESSSALTRALRAEFEKGREEQERRHQMELNTLKQQLELERQAWEAGRTRKEEAWLLNREQELREEIRKGRDKEIELVIHRLEADMALAKEESEKAAESRIKRLRDKYEAELSELEQSERKLQERCSELKGQLGEAEGENLRLQGLVRQKERALEDAQAVNEQLSSERSNLAQVIRQEFEDRLAASEEETRQAKAELATLQARQQLELEEVHRRVKTALARKEEAVSSLRTQHEAAVKRADHLEELLEQHRRPTPSTK
For B1, the binding result with Myc-Plk4 is “binds”.

B2: His-Cep131 (1-911 aa) (domain or fragment, UniProt Q9UPN4 1-911)
chain: MKGTRAIGSVPERSPAGVDLSLTGLPPPVSRRPGSAATTKPIVRSVSVVTGSEQKRKVLEATGPGGSQAINNLRRSNSTTQVSQPRSGSPRPTEPTDFLMLFEGSPSGKKRPASLSTAPSEKGATWNVLDDQPRGFTLPSNARSSSALDSPAGPRRKECTVALAPNFTANNRSNKGAVGNCVTTMVHNRYTPSERAPPLKSSNQTAPSLNNIIKAATCEGSESSGFGKLPKNVSSATHSARNNTGGSTGLPRRKEVTEEEAERFIHQVNQATVTIQRWYRHQVQRRGAGAARLEHLLQAKREEQRQRSGEGTLLDLHQQKEAARRKAREEKARQARRAAIQELQQKRALRAQKASTAERGPPENPRETRVPGMRQPAQELSPTPGGTAHQALKANNTGGGLPAAGPGDRCLPTSDSSPEPQQPPEDRTQDVLAQDAAGDNLEMMAPSRGSAKSRGPLEELLHTLQLLEKEPDVLPRPRTHHRGRYAWASEVTTEDDASSLTADNLEKFGKLSAFPEPPEDGTLLSEAKLQSIMSFLDEMEKSGQDQLDSQQEGWVPEAGPGPLELGSEVSTSVMRLKLEVEEKKQAMLLLQRALAQQRDLTARRVKETEKALSRQLQRQREHYEATIQRHLAFIDQLIEDKKVLSEKCEAVVAELKQEDQRCTERVAQAQAQHELEIKKLKELMSATEKARREKWISEKTKKIKEVTVRGLEPEIQKLIARHKQEVRRLKSLHEAELLQSDERASQRCLRQAEELREQLEREKEALGQQERERARQRFQQHLEQEQWALQQQRQRLYSEVAEERERLGQQAARQRAELEELRQQLEESSSALTRALRAEFEKGREEQERRHQMELNTLKQQLELERQAWEAGRTRKEEAWLLNREQELREEIRKGRDKEIELVIHRLEADM
On to B2, for which the binding entry with GST-Plk4-KD (K41R) and with GST-Plk4-WT was “binds” each time.
